According to the supplement of paper PMC7661543:
± gives the standard deviation of the averaged measurements. Differences between knockout arms are mostly noise.

System: SKBR3
Assay: relative cell number vs DMSO control (72 h) (% of DMSO); higher = less growth inhibition (more cells)
Protocol: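 QMAP-Seq: a pool of 5 breast cancer cell lines (ZR-75-1, SKBR3, HCC-38, MDA-MB-231, BT-20), each carrying 12 doxycycline-inducible Cas9 sgRNA perturbations (11 knockouts plus non-targeting sgNT), was treated with compounds for 72 h at four 10-fold doses (10 nM-10 uM or 1 nM-1 uM range). Barcodes were amplified and sequenced, and cell number was interpolated from 293T spike-in standard curves. The result is expressed as % of the median of DMSO wells. Two biological replicates.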

CC(C)n1c(/C=C/C(O)CC(O)CC(=O)O)c(-c2ccc(F)cc2)c2ccccc21 (configuration not stated) [Fluvastatin]
Conditions	relative cell number
sgRNA knockout: sgATF3, 10 nM	85.7 ± 35
sgRNA knockout: sgATF3, 100 nM	96.2 ± 22
sgRNA knockout: sgATF3, 1000 nM	83.3 ± 9.5
sgRNA knockout: sgATF3, 10000 nM	50.6 ± 0.98
sgRNA knockout: sgATF4, 10 nM	101 ± 2.2
sgRNA knockout: sgATF4, 100 nM	103 ± 1.1
sgRNA knockout: sgATF4, 1000 nM	79.8 ± 8.6
sgRNA knockout: sgATF4, 10000 nM	54.9 ± 11
sgRNA knockout: sgATF6, 10 nM	84.4 ± 11
sgRNA knockout: sgATF6, 100 nM	84.01 ± 0.62
sgRNA knockout: sgATF6, 1000 nM	74.1 ± 1.8
sgRNA knockout: sgATF6, 10000 nM	49.1 ± 6.6
sgRNA knockout: sgATG7, 10 nM	83.8 ± 40
sgRNA knockout: sgATG7, 100 nM	101 ± 11
sgRNA knockout: sgATG7, 1000 nM	94.9 ± 32
sgRNA knockout: sgATG7, 10000 nM	60.9 ± 22
sgRNA knockout: sgERN1, 10 nM	108 ± 43
sgRNA knockout: sgERN1, 100 nM	128 ± 20
sgRNA knockout: sgERN1, 1000 nM	85.2 ± 10
sgRNA knockout: sgERN1, 10000 nM	60 ± 3.2
sgRNA knockout: sgHSF1, 10 nM	86.3 ± 5
sgRNA knockout: sgHSF1, 100 nM	106 ± 7.4
sgRNA knockout: sgHSF1, 1000 nM	83 ± 34
sgRNA knockout: sgHSF1, 10000 nM	63.3 ± 15
sgRNA knockout: sgHSF2, 10 nM	84.1 ± 18
sgRNA knockout: sgHSF2, 100 nM	109 ± 21
sgRNA knockout: sgHSF2, 1000 nM	101 ± 38
sgRNA knockout: sgHSF2, 10000 nM	60.8 ± 22
sgRNA knockout: sgKEAP1, 10 nM	76 ± 28
sgRNA knockout: sgKEAP1, 100 nM	74.3 ± 20
sgRNA knockout: sgKEAP1, 1000 nM	75.4 ± 12
sgRNA knockout: sgKEAP1, 10000 nM	54.7 ± 22
sgRNA knockout: sgNFE2L2, 10 nM	90.7 ± 10
sgRNA knockout: sgNFE2L2, 100 nM	99.5 ± 14
sgRNA knockout: sgNFE2L2, 1000 nM	85.5 ± 8.8
sgRNA knockout: sgNFE2L2, 10000 nM	47.4 ± 14
sgRNA knockout: sgSLC35F2, 10 nM	67.4 ± 25
sgRNA knockout: sgSLC35F2, 100 nM	90.4 ± 16
sgRNA knockout: sgSLC35F2, 1000 nM	101 ± 2.9
sgRNA knockout: sgSLC35F2, 10000 nM	46.6 ± 7.5
sgRNA knockout: sgXBP1, 10 nM	67.9 ± 8.8
sgRNA knockout: sgXBP1, 100 nM	83.9 ± 3.7
sgRNA knockout: sgXBP1, 1000 nM	81.8 ± 16
sgRNA knockout: sgXBP1, 10000 nM	52 ± 5.9

C[C@]12CC[C@@H]3c4ccc(O)cc4C[C@@H](CCCCCCCCC[S+]([O-])CCCC(F)(F)C(F)(F)F)[C@H]3[C@@H]1CC[C@@H]2O (some centres not stated) [Fulvestrant]
Conditions	relative cell number
sgRNA knockout: sgATF3, 10 nM	93 ± 13
sgRNA knockout: sgATF3, 100 nM	63.6 ± 16
sgRNA knockout: sgATF3, 1000 nM	78.6 ± 17
sgRNA knockout: sgATF3, 10000 nM	88.9 ± 8
sgRNA knockout: sgATF4, 10 nM	80.8 ± 1.1
sgRNA knockout: sgATF4, 100 nM	91.7 ± 1.9
sgRNA knockout: sgATF4, 1000 nM	97.7 ± 5.3
sgRNA knockout: sgATF4, 10000 nM	75.3 ± 21
sgRNA knockout: sgATF6, 10 nM	82.7 ± 1.5
sgRNA knockout: sgATF6, 100 nM	95.1 ± 4.8
sgRNA knockout: sgATF6, 1000 nM	101.7 ± 0.058
sgRNA knockout: sgATF6, 10000 nM	79.2 ± 48
sgRNA knockout: sgATG7, 10 nM	101 ± 8.1
sgRNA knockout: sgATG7, 100 nM	72.2 ± 8.6
sgRNA knockout: sgATG7, 1000 nM	90.3 ± 5.2
sgRNA knockout: sgATG7, 10000 nM	87.59 ± 0.49
sgRNA knockout: sgERN1, 10 nM	94.9 ± 4.5
sgRNA knockout: sgERN1, 100 nM	94.7 ± 1.3
sgRNA knockout: sgERN1, 1000 nM	99.1 ± 31
sgRNA knockout: sgERN1, 10000 nM	96.6 ± 54
sgRNA knockout: sgHSF1, 10 nM	79.8 ± 2.6
sgRNA knockout: sgHSF1, 100 nM	79.1 ± 2
sgRNA knockout: sgHSF1, 1000 nM	77.3 ± 13
sgRNA knockout: sgHSF1, 10000 nM	71.3 ± 1.4
sgRNA knockout: sgHSF2, 10 nM	97.2 ± 6.6
sgRNA knockout: sgHSF2, 100 nM	89.3 ± 16
sgRNA knockout: sgHSF2, 1000 nM	94.2 ± 14
sgRNA knockout: sgHSF2, 10000 nM	85.6 ± 16
sgRNA knockout: sgKEAP1, 10 nM	81.6 ± 6.2
sgRNA knockout: sgKEAP1, 100 nM	63.9 ± 9.9
sgRNA knockout: sgKEAP1, 1000 nM	73.9 ± 16
sgRNA knockout: sgKEAP1, 10000 nM	79.7 ± 16
sgRNA knockout: sgNFE2L2, 10 nM	87.6 ± 7.4
sgRNA knockout: sgNFE2L2, 100 nM	87.2 ± 1.1
sgRNA knockout: sgNFE2L2, 1000 nM	89.3 ± 12
sgRNA knockout: sgNFE2L2, 10000 nM	79 ± 20
sgRNA knockout: sgSLC35F2, 10 nM	89.7 ± 15
sgRNA knockout: sgSLC35F2, 100 nM	81.2 ± 4.5
sgRNA knockout: sgSLC35F2, 1000 nM	70 ± 21
sgRNA knockout: sgSLC35F2, 10000 nM	98.4 ± 20
sgRNA knockout: sgXBP1, 10 nM	84.4 ± 16
sgRNA knockout: sgXBP1, 100 nM	73.8 ± 15
sgRNA knockout: sgXBP1, 1000 nM	87.2 ± 17
sgRNA knockout: sgXBP1, 10000 nM	73.8 ± 6.7

OCCn1cc(-c2ccc3c(c2)CC/C3=N\O)c(-c2ccncc2)n1 [GDC0879]
Conditions	relative cell number
sgRNA knockout: sgATF3, 10 nM	106 ± 16
sgRNA knockout: sgATF3, 100 nM	98.8 ± 12
sgRNA knockout: sgATF3, 1000 nM	116 ± 4.8
sgRNA knockout: sgATF3, 10000 nM	109 ± 2.4
sgRNA knockout: sgATF4, 10 nM	111 ± 11
sgRNA knockout: sgATF4, 100 nM	105 ± 2.4
sgRNA knockout: sgATF4, 1000 nM	94.5 ± 1.5
sgRNA knockout: sgATF4, 10000 nM	97.5 ± 4.3
sgRNA knockout: sgATF6, 10 nM	88.58 ± 0.82
sgRNA knockout: sgATF6, 100 nM	116 ± 1.6
sgRNA knockout: sgATF6, 1000 nM	93.4 ± 6.3
sgRNA knockout: sgATF6, 10000 nM	97.1 ± 15
sgRNA knockout: sgATG7, 10 nM	93.4 ± 15
sgRNA knockout: sgATG7, 100 nM	102 ± 8.8
sgRNA knockout: sgATG7, 1000 nM	112 ± 16
sgRNA knockout: sgATG7, 10000 nM	108 ± 4.7
sgRNA knockout: sgERN1, 10 nM	122 ± 43
sgRNA knockout: sgERN1, 100 nM	130 ± 5.8
sgRNA knockout: sgERN1, 1000 nM	117.5 ± 0.61
sgRNA knockout: sgERN1, 10000 nM	103 ± 9.4
sgRNA knockout: sgHSF1, 10 nM	110 ± 29
sgRNA knockout: sgHSF1, 100 nM	121 ± 2.2
sgRNA knockout: sgHSF1, 1000 nM	114 ± 29
sgRNA knockout: sgHSF1, 10000 nM	86.2 ± 23
sgRNA knockout: sgHSF2, 10 nM	83.7 ± 6.3
sgRNA knockout: sgHSF2, 100 nM	104 ± 31
sgRNA knockout: sgHSF2, 1000 nM	81.7 ± 11
sgRNA knockout: sgHSF2, 10000 nM	98.7 ± 11
sgRNA knockout: sgKEAP1, 10 nM	87.4 ± 19
sgRNA knockout: sgKEAP1, 100 nM	106 ± 15
sgRNA knockout: sgKEAP1, 1000 nM	99.5 ± 9.8
sgRNA knockout: sgKEAP1, 10000 nM	95.7 ± 26
sgRNA knockout: sgNFE2L2, 10 nM	89.7 ± 10
sgRNA knockout: sgNFE2L2, 100 nM	103 ± 18
sgRNA knockout: sgNFE2L2, 1000 nM	110 ± 11
sgRNA knockout: sgNFE2L2, 10000 nM	104 ± 13
sgRNA knockout: sgSLC35F2, 10 nM	103 ± 7.5
sgRNA knockout: sgSLC35F2, 100 nM	101 ± 23
sgRNA knockout: sgSLC35F2, 1000 nM	92.3 ± 6.1
sgRNA knockout: sgSLC35F2, 10000 nM	101 ± 4.5
sgRNA knockout: sgXBP1, 10 nM	124 ± 37
sgRNA knockout: sgXBP1, 100 nM	96.1 ± 14
sgRNA knockout: sgXBP1, 1000 nM	111 ± 7
sgRNA knockout: sgXBP1, 10000 nM	104 ± 23
